Measured values as given in patent US20170058314A1, “NOVEL METHODOLOGY FOR IDENTIFYING ANTI-PERSISTER ACTIVITY AND ANTIMICROBIAL SUSCEPTIBILITY FOR BORRELIA BURGDORFERI AND OTHER BACTERIA” (priority 2014, published 2017).

Legend:
[1] = system: round body form of B. burgdorferi; assay: SYBR Green I/PI assay on amoxicillin-induced round body form
[2] = system: S. aureus strains (Newman, USA300, CA-409, CA-127, NY-315); assay: Rapid SYBR Green/PI antibiotic susceptibility test; format: cell-based, Staphylococcus aureus; details: 30 minutes; kanamycin 25, ciprofloxacin 50 μg/mL

O=C(O)c1cn(C2CC2)c2cc(N3CCNCC3)c(F)cc2c1=O [Ciprofloxacin]
viability at 50 µM ([1]; Borreliella burgdorferi, 168 h, read-out: Residual viable cells (SYBR Green I/PI assay)): 28%
Ratios of green/red fluorescence, Primary screening ([1]; round body form, 50 μM, 7 days): 6.30
Ratios of green/red fluorescence, Rescreening (first column) ([1]; round body form, 50 μM, 7 days): 6.04
Ratios of green/red fluorescence, Rescreening (second column) ([1]; round body form, 50 μM, 7 days): 6.20
percent killed, resistant strain CA-127 [2]: 28%
